Assay results: patent US20220187321A1
These are yes or no findings as the source states them, for the method shown. Some binding calls cover weakened binding; strength is not graded here.

Sequences of proteins named here, by UniProt entry; tags and fusion partners are left off. Residues count along the entry.
UniProt P48058, residues 21-902: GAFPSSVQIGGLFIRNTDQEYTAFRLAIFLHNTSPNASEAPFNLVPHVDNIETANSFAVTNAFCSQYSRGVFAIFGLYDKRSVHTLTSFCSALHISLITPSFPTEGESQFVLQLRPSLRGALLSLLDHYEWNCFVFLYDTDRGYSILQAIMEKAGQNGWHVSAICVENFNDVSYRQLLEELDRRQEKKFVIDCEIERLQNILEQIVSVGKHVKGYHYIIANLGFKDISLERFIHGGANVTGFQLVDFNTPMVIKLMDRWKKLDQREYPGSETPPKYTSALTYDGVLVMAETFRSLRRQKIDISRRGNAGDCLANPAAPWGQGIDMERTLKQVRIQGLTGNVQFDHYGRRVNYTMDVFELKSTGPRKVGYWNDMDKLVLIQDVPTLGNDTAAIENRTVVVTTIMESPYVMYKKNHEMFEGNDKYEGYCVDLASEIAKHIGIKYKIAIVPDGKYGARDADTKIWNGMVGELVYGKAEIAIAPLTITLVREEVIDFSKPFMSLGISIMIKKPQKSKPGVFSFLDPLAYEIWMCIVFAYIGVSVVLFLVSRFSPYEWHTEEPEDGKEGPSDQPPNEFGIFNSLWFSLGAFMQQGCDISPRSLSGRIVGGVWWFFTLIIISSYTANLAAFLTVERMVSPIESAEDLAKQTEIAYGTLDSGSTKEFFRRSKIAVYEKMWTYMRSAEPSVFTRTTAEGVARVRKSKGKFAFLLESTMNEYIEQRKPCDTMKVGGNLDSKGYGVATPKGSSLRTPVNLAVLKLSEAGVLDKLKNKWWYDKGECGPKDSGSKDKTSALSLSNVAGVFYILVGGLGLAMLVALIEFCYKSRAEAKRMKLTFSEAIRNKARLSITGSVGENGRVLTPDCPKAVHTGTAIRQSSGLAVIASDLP

Experiments:
[1] = molecular target: Glutamate Ionotropic Receptor AMPA Type Subunit 4 (human) (UniProt P48058); experiment: solid-phase PLA on human plasma, larger cohort
[2] = molecular target: Glutamate Ionotropic Receptor AMPA Type Subunit 4 (human) (UniProt P48058); experiment: solid-phase PLA on human plasma (Ctrl n=50, AD n=40)
[3] = molecular target: Glutamate Ionotropic Receptor AMPA Type Subunit 4 (human) (UniProt P48058); experiment: solid-phase PLA on human plasma (Ctrl n=34, AD n=33)
[4] = molecular target: Glutamate Ionotropic Receptor AMPA Type Subunit 4 (human) (UniProt P48058); experiment: solid-phase PLA on serially diluted human plasma; anti-NPTX2 capture, anti-NPTX2 and anti-GluA4 oligonucleotide probes
[5] = molecular target: Glutamate Ionotropic Receptor AMPA Type Subunit 4 (human) (UniProt P48058); experiment: solid-phase PLA with qPCR readout on human plasma of AD (n=40) and control (n=50) subjects; probes anti-NPTX2 and rabbit anti-GluA4; endogenous complex
[6] = molecular target: Glutamate Ionotropic Receptor AMPA Type Subunit 4 (human) (UniProt P48058); experiment: solid-phase PLA with qPCR readout on 50 uL human plasma of AD (n=33) and control (n=34) subjects; capture anti-NPTX2, probes anti-NPTX2 and rabbit anti-GluA4; endogenous complex
[7] = molecular target: Glutamate Ionotropic Receptor AMPA Type Subunit 4 (human) (UniProt P48058); experiment: solid-phase PLA with qPCR readout on human plasma two-fold serially diluted in NPTX2-depleted plasma; capture anti-NPTX2, probes anti-NPTX2 and rabbit anti-GluA4; endogenous complex
[8] = molecular target: Glutamate Ionotropic Receptor AMPA Type Subunit 4 (human) (UniProt P48058); experiment: solid-phase PLA with qPCR readout on human plasma two-fold serially diluted in PBS; capture anti-NPTX2, probes anti-NPTX2 (plus strand) and rabbit anti-GluA4 (minus strand); endogenous complex

Measured: binding

B1: Neuronal Pentraxin 2 (ligand, human, UniProt P47972 16-431, looked up)
chain: GAQDSPAPGSRFVCTALPPEAVHAGCPLPAMPMQGGAQSPEEELRAAVLQLRETVVQQKETLGAQREAIRELTGKLARCEGLAGGKARGAGATGKDTMGDLPRDPGHVVEQLSRSLQTLKDRLESLEHQLRANVSNAGLPGDFREVLQQRLGELERQLLRKVAELEDEKSLLHNETSAHRQKTESTLNALLQRVTELERGNSAFKSPDAFKVSLPLRTNYLYGKIKKTLPELYAFTICLWLRSSASPGIGTPFSYAVPGQANEIVLIEWGNNPIELLINDKVAQLPLFVSDGKWHHICVTWTTRDGMWEAFQDGEKLGTGENLAPWHPIKPGGVLILGQEQDTVGGRFDATQAFVGELSQFNIWDRVLRAQEIVNIANCSTNMPGNIIPWVDNNVDVFGGASKWPVETCEERLLDL
binds: all assays above
